# The other results are listed elsewhere or left out. The main result of the screen is listed elsewhere. These columns were measured beside it and carry no call. The list favours compounds with an active or inconclusive main result. The note in brackets gives the kind of curve behind each potency; many fits are weak.
# Experiment: qHTS Assay to Find Inhibitors of Chronic Active B-Cell Receptor Signaling
# Settings: ABC-DLBCL IkBa-CBG/CBR reporter, luminescence ratio (green luciferase fused to IkBa over red control in TMD8 lymphoma cells), 4 h
# Summary of the method: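 Concentration-response series (up to 46 uM) were applied to TMD8 dual-reporter cells for 4 h at 37C with doxycycline. Green/red ratio, after filter-overlap correction, defined %Activity; red signal alone was normalised to basal cells and zero luminescence.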
# [1] = measured here: CBR red luminescence, cell number
# [2] = measured here: IkBa-CBG green luminescence
SMILES,AC50 [1],AC50 [2]
COc1cccc(-c2nn(C)c3sc(C(=O)NCc4ccccn4)cc23)c1,"16.4 µM [falling, partial curve, poor fit]",
O=C(Nc1cccc(NC(=O)c2ccccc2Cl)c1)c1ccc(F)cc1,"35.5 µM [falling, single point]",
CN(C)c1ccc(N=Cc2nc(-c3ccccc3)oc2OC(=O)c2ccccc2)cc1,"2.59 µM [falling, full curve]",
CCOC(=O)C1=C(COC(=O)CCOc2ccc(C)cc2)NC(=O)NC1C (configuration not stated),"10.3 µM [falling, partial curve]","11.6 µM [rising, partial curve, poor fit]"
COc1ccc(C(=O)COC(=O)C(CCCCN2C(=O)C3C4C=CC(C4)C3C2=O)N2C(=O)C3C4C=CC(C4)C3C2=O)cc1 (configuration not stated),"14.6 µM [rising, partial curve]",
CCC1CSC(Nc2ccc(C(=O)/C=C/c3ccc(OC)c(OC)c3)cc2)=N1 (configuration not stated),"18.4 µM [falling, single point]",
CCOP(=O)(OCC)c1nc(-c2ccccc2)oc1N1CCCCC1,"3.55 µM [rising, full curve, poor fit]",
O=C(CSc1n[nH]c(=O)[nH]c1=O)N/N=C/c1ccccc1O,"23.1 µM [rising, single point]",
O=C(CSc1nc2ccccc2o1)Nc1nc2ccc(Br)cc2s1,"0.366 µM [falling, full curve, poor fit]",
O=C1N=c2ccccc2=C1c1sc(NS(=O)(=O)c2ccccc2)nc1O,"10 µM [falling, partial curve, poor fit]",
CCc1c(C)sc(NC(=O)c2cccs2)c1C#N,"2.31 µM [rising, full curve]",
CN(NS(=O)(=O)c1ccc(Cl)cc1)c1nc(C(F)(F)F)nc2ccccc12,,"15.8 µM [rising, partial curve, poor fit]"
CC1Cc2ccccc2N1C(=O)C1CCCN(S(=O)(=O)c2cccc3cccnc23)C1 (configuration not stated),"0.092 µM [falling, full curve, poor fit]",
C[C@H](CO)N1C[C@H](C)[C@@H](CN(C)Cc2ccc3c(c2)OCO3)Oc2c(NS(C)(=O)=O)cccc2C1=O,"8.2 µM [rising, partial curve, poor fit]",
Cc1c(CCC(=O)NCCCn2ccnc2)c(=O)oc2c(C)c3oc4c(c3cc12)CCCC4,"0.631 µM [rising, full curve, poor fit]","2 µM [falling, full curve, poor fit]"
COc1cccc(NC(=O)CC(=O)c2ccccc2)c1,"35.5 µM [falling, single point]",
Cn1c(=N)n(CC(O)c2ccccc2)c2ccccc21 (configuration not stated),"14.6 µM [rising, single point]",
CCOC(=O)CNC(=O)c1cc2c(=O)[nH]c3ccc(C)cc3c2s1,"2.82 µM [rising, single point]",
Cc1c(C(=O)N(Cc2ccc(N(C)C)cc2)C2CCS(=O)(=O)C2)oc2ccccc12 (configuration not stated),"0.112 µM [rising, full curve, poor fit]",
Cc1ccc(O)c(N=Nc2nccs2)c1,"23.1 µM [rising, single point]","13 µM [falling, partial curve]"
Cc1ccc(Nc2ncnc3c2oc2ccccc23)cc1,"13 µM [falling, partial curve, poor fit]",

# Gathered by group: the compounds so far with a Cl atom.
SMILES,AC50 [1],AC50 [2]
O=C(Nc1cccc(NC(=O)c2ccccc2Cl)c1)c1ccc(F)cc1,"35.5 µM [falling, single point]",
CN(NS(=O)(=O)c1ccc(Cl)cc1)c1nc(C(F)(F)F)nc2ccccc12,,"15.8 µM [rising, partial curve, poor fit]"

# Remaining list, next part:

SMILES,AC50 [1],AC50 [2]
CC1=C(c2ccccc2)[N+](=O)C2(CCCCC2)N1[O-],"12.6 µM [falling, single point]",
Clc1ccc(OCCOCCN2CCc3ccccc3C2)c(Cl)c1,"18.4 µM [falling, partial curve, poor fit]",
O=C(NC(=S)Nc1ccccc1F)c1ccc(Br)o1,"1 µM [rising, full curve, poor fit]",
Cc1ccc(-c2nnc(Nc3ccc(Br)cc3)c3ccccc23)cc1S(=O)(=O)N1CCN(C)CC1,"2 µM [falling, full curve]",
CO/N=C/C(=N\Nc1ccc(OC)cc1)C(=O)c1ccc(OC)cc1,"16.4 µM [rising, single point]",
NCCCn1c(C(=O)c2cc(Cl)c(N)c(Cl)c2)c2ccc([N+](=O)[O-])cc2[n+]1[O-],"10.3 µM [falling, partial curve]",
COc1cc([N+](=O)[O-])cc(/C=N/NC(=O)c2ccc(C)nc2)c1O,"25.9 µM [falling, partial curve, poor fit]",
CC(Oc1ccc(Br)cc1)C(=O)Nc1ccc(S(=O)(=O)Nc2nccs2)cc1 (configuration not stated),"11.2 µM [falling, single point]",
CN(CC(=O)Nc1sccc1C#N)Cc1ccccc1,"6.51 µM [rising, full curve, poor fit]",
CN(c1cccc(NC(=O)c2ccc(CN3CCc4ccccc4C3)cc2)c1)S(C)(=O)=O,"35.5 µM [falling, single point]",
CC(C)(C)N(Cc1ccccc1)C(=O)COC(=O)c1ccc(Br)o1,"1.64 µM [rising, full curve]",
CN(C)S(=O)(=O)N1CCC(CO)(CCc2ccccc2)CC1,"35.5 µM [rising, single point]",
O=[N+]([O-])c1cccnc1Oc1ccc(OCc2ccccc2)cc1,"7.94 µM [rising, partial curve, poor fit]",
O=c1[nH]cnc2c1C(c1ccccc1[N+](=O)[O-])c1c(nc[nH]c1=O)O2,"0.058 µM [falling, full curve, poor fit]",
CCNC(=S)N1CCN(CC(=O)Nc2ccc(Br)cc2)CC1,"2.91 µM [falling, partial curve, poor fit]",
C=C(C)COc1ccc(-c2[nH]ncc2-c2ccccc2OC)c(O)c1,"0.398 µM [rising, full curve, poor fit]",
O=C(CC1Sc2ncnn2C1=O)Nc1ccc(Cl)cc1 (configuration not stated),"10 µM [falling, partial curve, poor fit]",
COc1ccccc1CNC(=O)c1ccccc1OCc1ccc(F)cc1,"1.64 µM [falling, full curve]",
CCN1C(=O)c2cccc3c(S(=O)(=O)Nc4ccccc4O)ccc1c23,"20 µM [rising, partial curve]","10 µM [falling, partial curve]"
CCc1cc(C(=O)NNC(=S)Nc2ccccc2C)cs1,"0.013 µM [falling, full curve, poor fit]",
Cc1ccc(-c2ccc(/C=N/n3cnnc3)o2)cc1,"3.16 µM [rising, full curve, poor fit]",

SMILES,AC50 [1],AC50 [2]
Cc1ccc(S(=O)(=O)N(C)CC(=O)NC2CCCC2)cc1,"32.6 µM [falling, single point]",
O=S(=O)(NCCc1ccccc1)c1ccc(Cl)nc1,"32.6 µM [rising, single point]",
NC(=O)c1nsnc1-c1ccccc1O,"9.2 µM [falling, partial curve, poor fit]",
CC1(c2ccccc2)NC(=O)N(CC(=O)Nc2nc(-c3ccccn3)cs2)C1=O (configuration not stated),"16.4 µM [falling, partial curve, poor fit]",
CCOC(=O)C1=C(c2ccccc2)OC(N)=C(C#N)C1c1ccc(Br)s1 (configuration not stated),"13 µM [falling, partial curve, poor fit]",
Cc1ccc(-c2csc(NC(=O)c3ccc(Br)cc3)c2C(=O)O)cc1,"0.112 µM [falling, full curve]",
CCOC(=O)c1ccc(NC(=O)c2cccc3c2C(=O)N(CC2CCCO2)C3)cc1 (configuration not stated),"0.891 µM [rising, full curve, poor fit]",
CC(=O)N/C(=C\c1ccccc1)C(=O)OC/C=C/c1ccccc1,"11.2 µM [falling, partial curve]",
C/C(=N\NC(=O)c1ccccc1N)c1ccc(NC(=O)Cc2ccccc2)cc1,"35.5 µM [falling, partial curve, poor fit]",
Clc1ccc(OCc2nc3ccccc3[nH]2)cc1,"25.1 µM [falling, single point]",
COc1ccc(NC(=O)c2cc3ccccc3o2)cn1,"17.8 µM [falling, single point]",
Brc1ccc(-c2csc(N3CCCCC3)n2)cc1,"0.103 µM [falling, full curve, poor fit]",
Oc1ccc(C=Nc2cccc3ncccc23)c(O)c1,"14.6 µM [rising, partial curve, poor fit]",
CCNc1nc(NC(C)C)nc(Oc2ccc(/C=N/O)cc2)n1,"25.9 µM [rising, single point]",
Cc1ccc(C2(C(F)(F)F)NC(=O)N3C(=C2C#N)Nc2ccccc23)cc1 (configuration not stated),"0.13 µM [falling, partial curve, poor fit]",
CC(=O)c1ccc(NC(=O)C(C)OC(=O)/C=C/c2ccco2)cc1 (configuration not stated),"29.1 µM [rising, single point]","18.4 µM [falling, single point]"
COc1ccc(C2(C(=O)c3ccccc3)C(=O)c3ccccc3C2=O)cc1,"2.82 µM [rising, single point]",
Cc1ccc(C)c(N2CCN(S(=O)(=O)c3ccc4c(c3)C(C)(C)C(=O)N4C)CC2)c1,,"11.2 µM [rising, partial curve, poor fit]"
O=C1C=C(NCc2ccco2)C2(CCCCC2)O1,"4.61 µM [rising, partial curve, poor fit]",
Cc1cc(C(=O)CSc2n[nH]c(N)n2)c(C)n1-c1cc(F)ccc1F,"11.6 µM [rising, partial curve, poor fit]",
